Results as given in the supplement of paper PMC12067093, “Discovery and optimisation of a covalent ligand for TRIM25 and its application to targeted protein ubiquitination” (Chemical Science, 2025).
The list shows a part of the results.

Sequences of proteins named here, by UniProt entry; tags and fusion partners are left off. A change or cut given only in a name is not applied to a line headed by its entry.
UniProt P55263: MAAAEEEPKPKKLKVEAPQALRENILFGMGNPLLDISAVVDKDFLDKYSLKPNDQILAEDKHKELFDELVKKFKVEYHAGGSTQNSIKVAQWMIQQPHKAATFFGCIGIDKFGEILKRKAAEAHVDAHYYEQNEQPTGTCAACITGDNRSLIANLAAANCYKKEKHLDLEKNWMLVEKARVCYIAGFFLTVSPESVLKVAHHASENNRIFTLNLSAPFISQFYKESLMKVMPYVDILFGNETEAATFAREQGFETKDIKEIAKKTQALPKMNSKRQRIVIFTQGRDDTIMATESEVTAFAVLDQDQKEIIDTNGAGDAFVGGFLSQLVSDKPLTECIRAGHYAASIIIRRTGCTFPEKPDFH
UniProt P33121: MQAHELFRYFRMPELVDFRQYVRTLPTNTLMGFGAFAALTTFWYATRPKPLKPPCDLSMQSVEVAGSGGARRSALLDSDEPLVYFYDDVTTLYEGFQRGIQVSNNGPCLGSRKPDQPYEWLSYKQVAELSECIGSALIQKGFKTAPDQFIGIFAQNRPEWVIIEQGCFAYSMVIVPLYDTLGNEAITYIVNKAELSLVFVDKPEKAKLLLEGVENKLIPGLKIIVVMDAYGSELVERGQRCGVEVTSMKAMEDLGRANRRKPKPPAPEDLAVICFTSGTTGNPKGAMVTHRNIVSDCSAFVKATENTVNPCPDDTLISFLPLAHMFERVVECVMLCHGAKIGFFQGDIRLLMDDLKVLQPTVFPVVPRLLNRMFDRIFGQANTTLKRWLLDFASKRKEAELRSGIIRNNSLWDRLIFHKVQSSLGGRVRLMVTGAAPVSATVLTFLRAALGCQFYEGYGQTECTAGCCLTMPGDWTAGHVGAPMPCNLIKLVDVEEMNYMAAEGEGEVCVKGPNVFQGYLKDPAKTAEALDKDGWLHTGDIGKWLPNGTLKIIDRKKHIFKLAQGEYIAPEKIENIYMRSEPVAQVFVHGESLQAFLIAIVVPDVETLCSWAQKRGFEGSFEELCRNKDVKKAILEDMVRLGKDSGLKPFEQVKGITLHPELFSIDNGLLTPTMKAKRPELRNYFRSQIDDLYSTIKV
UniProt O43707, whole entry, looked up: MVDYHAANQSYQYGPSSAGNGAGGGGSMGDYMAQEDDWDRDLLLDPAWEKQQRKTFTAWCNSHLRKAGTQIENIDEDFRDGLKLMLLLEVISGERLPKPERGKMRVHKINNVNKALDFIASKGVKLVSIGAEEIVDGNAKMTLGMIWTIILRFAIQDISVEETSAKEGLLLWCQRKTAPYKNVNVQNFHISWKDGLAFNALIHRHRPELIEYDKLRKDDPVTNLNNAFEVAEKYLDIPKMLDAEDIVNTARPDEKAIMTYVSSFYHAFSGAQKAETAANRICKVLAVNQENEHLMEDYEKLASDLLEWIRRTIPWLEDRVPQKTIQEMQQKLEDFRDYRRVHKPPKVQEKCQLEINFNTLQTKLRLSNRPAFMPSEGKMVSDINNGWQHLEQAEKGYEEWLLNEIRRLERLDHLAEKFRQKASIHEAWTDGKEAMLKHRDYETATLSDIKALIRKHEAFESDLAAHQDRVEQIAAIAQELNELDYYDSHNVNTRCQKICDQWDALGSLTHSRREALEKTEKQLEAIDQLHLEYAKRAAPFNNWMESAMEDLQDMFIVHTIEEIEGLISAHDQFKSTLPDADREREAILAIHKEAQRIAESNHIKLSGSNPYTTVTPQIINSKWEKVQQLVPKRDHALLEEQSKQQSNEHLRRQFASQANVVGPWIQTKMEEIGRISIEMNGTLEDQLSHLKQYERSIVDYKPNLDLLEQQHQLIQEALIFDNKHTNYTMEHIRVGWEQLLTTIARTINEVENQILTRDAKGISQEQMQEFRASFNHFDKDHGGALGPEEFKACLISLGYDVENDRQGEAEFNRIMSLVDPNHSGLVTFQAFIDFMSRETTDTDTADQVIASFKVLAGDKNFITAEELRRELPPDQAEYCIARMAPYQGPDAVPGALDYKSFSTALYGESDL
UniProt O60488: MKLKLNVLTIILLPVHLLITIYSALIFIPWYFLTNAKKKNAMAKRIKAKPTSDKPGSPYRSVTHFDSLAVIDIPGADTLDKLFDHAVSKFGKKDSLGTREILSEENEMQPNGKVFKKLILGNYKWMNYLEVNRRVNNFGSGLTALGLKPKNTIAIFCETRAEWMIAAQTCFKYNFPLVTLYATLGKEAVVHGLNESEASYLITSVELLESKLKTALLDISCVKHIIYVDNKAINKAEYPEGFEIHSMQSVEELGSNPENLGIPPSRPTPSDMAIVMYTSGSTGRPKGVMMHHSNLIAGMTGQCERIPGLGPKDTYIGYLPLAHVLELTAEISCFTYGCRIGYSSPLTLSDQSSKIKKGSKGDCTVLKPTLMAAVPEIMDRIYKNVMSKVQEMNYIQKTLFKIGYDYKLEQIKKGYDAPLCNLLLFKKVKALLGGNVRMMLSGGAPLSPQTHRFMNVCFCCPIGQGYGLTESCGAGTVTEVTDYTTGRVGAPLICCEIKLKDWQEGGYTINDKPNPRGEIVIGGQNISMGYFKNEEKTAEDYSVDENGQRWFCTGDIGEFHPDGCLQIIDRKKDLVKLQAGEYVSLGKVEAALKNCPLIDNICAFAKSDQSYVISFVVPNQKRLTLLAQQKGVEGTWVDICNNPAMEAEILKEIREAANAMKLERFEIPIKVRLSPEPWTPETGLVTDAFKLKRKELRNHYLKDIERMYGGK
UniProt Q9BUB4: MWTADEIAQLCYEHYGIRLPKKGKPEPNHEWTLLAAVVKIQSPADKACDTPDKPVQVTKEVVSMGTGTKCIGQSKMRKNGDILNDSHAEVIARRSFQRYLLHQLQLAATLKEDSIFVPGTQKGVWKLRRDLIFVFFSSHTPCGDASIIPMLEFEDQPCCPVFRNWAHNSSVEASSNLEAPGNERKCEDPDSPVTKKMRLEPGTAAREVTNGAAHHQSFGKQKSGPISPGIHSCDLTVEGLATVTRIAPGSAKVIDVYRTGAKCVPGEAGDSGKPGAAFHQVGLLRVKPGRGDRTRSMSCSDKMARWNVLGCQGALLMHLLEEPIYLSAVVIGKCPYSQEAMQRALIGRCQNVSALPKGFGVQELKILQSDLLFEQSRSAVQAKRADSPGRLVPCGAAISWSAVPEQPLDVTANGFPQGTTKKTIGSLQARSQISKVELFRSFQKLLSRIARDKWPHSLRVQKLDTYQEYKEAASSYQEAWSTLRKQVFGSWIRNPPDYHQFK
UniProt P12814, whole entry, looked up: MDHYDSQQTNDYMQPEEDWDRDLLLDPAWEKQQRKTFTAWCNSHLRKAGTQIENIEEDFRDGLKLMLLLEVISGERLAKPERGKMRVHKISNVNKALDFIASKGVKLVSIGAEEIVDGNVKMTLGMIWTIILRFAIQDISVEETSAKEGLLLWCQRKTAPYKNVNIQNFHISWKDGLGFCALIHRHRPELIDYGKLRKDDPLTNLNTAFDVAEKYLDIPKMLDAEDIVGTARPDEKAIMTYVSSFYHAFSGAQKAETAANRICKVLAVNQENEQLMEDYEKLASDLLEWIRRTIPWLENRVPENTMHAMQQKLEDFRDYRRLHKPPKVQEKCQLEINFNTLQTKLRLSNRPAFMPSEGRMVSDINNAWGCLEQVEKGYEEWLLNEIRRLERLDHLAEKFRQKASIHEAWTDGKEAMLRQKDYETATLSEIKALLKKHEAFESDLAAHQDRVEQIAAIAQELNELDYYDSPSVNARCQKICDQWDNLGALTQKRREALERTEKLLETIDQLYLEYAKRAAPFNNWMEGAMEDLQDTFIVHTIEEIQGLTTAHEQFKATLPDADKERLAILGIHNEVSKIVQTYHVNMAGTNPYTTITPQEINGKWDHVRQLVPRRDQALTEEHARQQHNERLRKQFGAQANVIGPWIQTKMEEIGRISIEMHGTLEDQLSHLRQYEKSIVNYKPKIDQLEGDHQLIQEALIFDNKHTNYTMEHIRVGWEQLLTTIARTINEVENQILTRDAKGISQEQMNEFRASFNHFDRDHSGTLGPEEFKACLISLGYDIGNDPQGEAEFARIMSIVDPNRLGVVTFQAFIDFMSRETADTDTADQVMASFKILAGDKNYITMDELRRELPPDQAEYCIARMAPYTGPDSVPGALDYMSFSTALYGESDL
UniProt P30566: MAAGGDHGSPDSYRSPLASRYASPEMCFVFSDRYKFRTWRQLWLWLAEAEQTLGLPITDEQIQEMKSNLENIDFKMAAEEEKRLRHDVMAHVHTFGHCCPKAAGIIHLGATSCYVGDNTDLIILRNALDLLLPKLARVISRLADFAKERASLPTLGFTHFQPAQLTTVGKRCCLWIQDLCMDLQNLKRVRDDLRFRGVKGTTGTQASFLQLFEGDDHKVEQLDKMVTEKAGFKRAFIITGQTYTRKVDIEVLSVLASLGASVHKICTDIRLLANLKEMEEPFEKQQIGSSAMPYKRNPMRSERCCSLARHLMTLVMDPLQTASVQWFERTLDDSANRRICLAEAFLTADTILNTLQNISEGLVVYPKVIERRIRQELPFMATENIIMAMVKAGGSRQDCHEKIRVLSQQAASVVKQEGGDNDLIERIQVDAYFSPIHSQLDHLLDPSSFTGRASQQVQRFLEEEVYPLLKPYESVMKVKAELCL
UniProt Q9Y4W6: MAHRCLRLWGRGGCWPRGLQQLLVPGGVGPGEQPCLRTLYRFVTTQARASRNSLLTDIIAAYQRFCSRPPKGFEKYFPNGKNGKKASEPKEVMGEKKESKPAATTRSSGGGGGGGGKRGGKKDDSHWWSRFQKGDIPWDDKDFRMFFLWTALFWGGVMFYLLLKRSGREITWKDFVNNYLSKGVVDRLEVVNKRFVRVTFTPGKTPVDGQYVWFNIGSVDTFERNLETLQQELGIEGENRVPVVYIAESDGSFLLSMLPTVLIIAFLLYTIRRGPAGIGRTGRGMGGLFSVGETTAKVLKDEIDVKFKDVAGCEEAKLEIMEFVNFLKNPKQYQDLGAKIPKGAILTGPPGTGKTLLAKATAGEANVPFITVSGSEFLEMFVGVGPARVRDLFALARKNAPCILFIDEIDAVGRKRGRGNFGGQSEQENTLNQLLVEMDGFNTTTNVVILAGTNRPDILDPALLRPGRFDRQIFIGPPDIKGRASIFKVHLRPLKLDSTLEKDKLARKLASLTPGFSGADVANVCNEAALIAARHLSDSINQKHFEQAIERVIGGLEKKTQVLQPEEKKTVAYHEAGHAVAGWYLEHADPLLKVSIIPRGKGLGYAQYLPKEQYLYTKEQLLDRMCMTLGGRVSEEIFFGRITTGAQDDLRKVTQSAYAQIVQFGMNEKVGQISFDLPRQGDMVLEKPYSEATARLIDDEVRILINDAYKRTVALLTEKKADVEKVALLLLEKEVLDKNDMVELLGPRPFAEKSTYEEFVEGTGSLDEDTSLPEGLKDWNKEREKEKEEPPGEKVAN
UniProt O14734: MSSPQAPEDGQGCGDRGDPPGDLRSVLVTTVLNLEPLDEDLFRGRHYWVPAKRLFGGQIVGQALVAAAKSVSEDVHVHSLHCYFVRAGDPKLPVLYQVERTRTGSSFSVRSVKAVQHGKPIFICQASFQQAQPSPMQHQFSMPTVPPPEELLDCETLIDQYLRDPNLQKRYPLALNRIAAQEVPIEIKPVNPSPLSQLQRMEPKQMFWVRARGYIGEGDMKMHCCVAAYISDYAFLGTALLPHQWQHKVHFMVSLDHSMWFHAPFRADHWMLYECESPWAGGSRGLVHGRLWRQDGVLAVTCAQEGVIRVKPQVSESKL
UniProt O14672: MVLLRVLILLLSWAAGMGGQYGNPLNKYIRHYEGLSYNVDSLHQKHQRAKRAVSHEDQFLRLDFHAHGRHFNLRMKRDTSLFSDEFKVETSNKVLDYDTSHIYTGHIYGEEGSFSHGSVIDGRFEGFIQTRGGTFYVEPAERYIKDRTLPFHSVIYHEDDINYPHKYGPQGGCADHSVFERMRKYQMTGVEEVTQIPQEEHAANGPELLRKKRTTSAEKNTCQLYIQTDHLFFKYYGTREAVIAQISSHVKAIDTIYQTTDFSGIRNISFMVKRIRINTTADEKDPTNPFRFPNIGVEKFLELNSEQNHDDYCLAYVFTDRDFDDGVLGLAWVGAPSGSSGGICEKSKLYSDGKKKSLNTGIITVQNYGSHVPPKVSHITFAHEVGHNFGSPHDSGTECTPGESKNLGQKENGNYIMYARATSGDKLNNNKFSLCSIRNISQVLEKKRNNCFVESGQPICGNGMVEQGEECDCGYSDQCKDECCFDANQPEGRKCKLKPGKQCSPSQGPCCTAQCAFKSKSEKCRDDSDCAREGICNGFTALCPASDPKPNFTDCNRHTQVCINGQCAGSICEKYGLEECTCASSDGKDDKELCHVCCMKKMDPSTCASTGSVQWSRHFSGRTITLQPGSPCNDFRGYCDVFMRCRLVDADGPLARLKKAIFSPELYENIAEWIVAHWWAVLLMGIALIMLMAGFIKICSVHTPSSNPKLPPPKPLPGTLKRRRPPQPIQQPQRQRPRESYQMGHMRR

Compound: CC1Cc2ccccc2N1C(=O)C1CCCN(C1)C(=O)CCl (mixture of isomers) [TRIM25 ligand 11 (diastereomer mixture)]
Test: probe-labelled cysteine peptide fold change vs DMSO (competition) (log2 fold change); higher = less target engagement (more negative = stronger competition)
Settings: THP-1, incubation time: 4 h
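Further: competitive chemoproteomic profiling in live THP-1 cells with an iodoacetamide desthiobiotin (IA-DTB) probe, comparing probe-labelled peptide intensities in compound-treated cells against DMSO-treated controls.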

Target | probe-labelled cysteine peptide fold change (10 µM) | probe-labelled cysteine peptide fold change (50 µM)
ACY1_Q03154_116_CVSIQYLEAVR (UniProt Q03154) | 0.058 | -0.021
ADAM17_P78536_365_ANSHGGVCPK (UniProt P78536) | -0.00526 | 0.139
ADK_P55263_336_PLTECIR (UniProt P55263) | 0.109 | 0.399
ACSL1_P33121_132_QVAELSECIGSALIQK (UniProt P33121) | -0.0785 | 0.156
ACTN4_O43707_499_ICDQWDALGSLTHSR (UniProt O43707) | 0.134 | 0.0841
ACSL4_O60488_595_NCPLIDNICAFAK (UniProt O60488) | -0.0982 | -0.212
ADPGK_Q9BRR6_470_EGISFHFTPVLVCK (UniProt Q9BRR6) | 0.195 | -0.0414
ACSF2_Q96CM8_553_MGEEICACIR (UniProt Q96CM8) | -0.0479 | -0.134
ADAT1_Q9BUB4_263_CVPGEAGDSGKPGAAFHQVGLLR (UniProt Q9BUB4) | 0.0425 | -0.0347
ACSL3_O95573_503+504_VGAPLVCCEIK (UniProt O95573) | 0.00302 | 0.118
ACTN4_O43707_499_ICDQWDALGSLTHSRR (UniProt O43707) | 0.0836 | -0.0109
ACSF2_Q96CM8_122_AASGLLSIGLCK (UniProt Q96CM8) | 0.0703 | -0.094
ACTN1_P12814_774_ACLISLGYDIGNDPQGEAEFAR (UniProt P12814) | 0.388 | 0.22
ADRM1_Q16186_121_TDQDEEHCR (UniProt Q16186) | -0.0674 | -0.0473
ACTN1_P12814_370_MVSDINNAWGCLEQVEK (UniProt P12814) | -0.191 | -0.201
ACSL4_O60488_552_WFCTGDIGEFHPDGCLQIIDR (UniProt O60488) | 0.00367 | 0.137
ADSL_P30566_173_CCLWIQDLCMDLQNLK (UniProt P30566) | 0.303 | 0.139
AGGF1_Q8N302_494_CDPYVLEHGDEVK (UniProt Q8N302) | 0.0808 | 0.0697
ADSL_P30566_113_AAGIIHLGATSCYVGDNTDLIILR (UniProt P30566) | 0.0481 | 0.29

2 records drawn at random from the list so far:
Target | probe-labelled cysteine peptide fold change (10 µM) | probe-labelled cysteine peptide fold change (50 µM)
ACTN4_O43707_499_ICDQWDALGSLTHSRR (UniProt O43707) | 0.0836 | -0.0109
ACSL4_O60488_552_WFCTGDIGEFHPDGCLQIIDR (UniProt O60488) | 0.00367 | 0.137

Next part:

Target | probe-labelled cysteine peptide fold change (10 µM) | probe-labelled cysteine peptide fold change (50 µM)
ACTR3_P61158_394_YAVWFGGSMLASTPEFYQVCHTKK (UniProt P61158) | -0.388 | -0.251
AFG3L2_Q9Y4W6_313_DVAGCEEAKLEIMEFVNFLK (UniProt Q9Y4W6) | -0.133 | -0.232
AFG3L2_Q9Y4W6_313_DVAGCEEAK (UniProt Q9Y4W6) | 0.206 | 0.157
ADNP_Q9H2P0_223_EESSIHCK (UniProt Q9H2P0) | 0.196 | 0.129
ADD2_P35612_210_GSSCFPVDTTGFCLHSAIYAARPDVR (UniProt P35612) | -0.0728 | -0.106
ACSL5_Q9ULC5_121_AEYLGSCLLHK (UniProt Q9ULC5) | 0.0446 | -0.00844
ADK_P55263_106_AATFFGCIGIDK (UniProt P55263) | -0.0146 | -0.0159
ACTR3B_Q9P1U1_408_DYEEYGPSICR (UniProt Q9P1U1) | 0.0826 | 0.189
ACSL1_P33121_336_VVECVMLCHGAK (UniProt P33121) | 0.0143 | 0.203
ACSS2_Q9NR19_554_KFPGYYVTGDGCQR (UniProt Q9NR19) | 0.0828 | -0.0704
ACOT8_O14734_275_ADHWMLYECESPWAGGSR (UniProt O14734) | -0.0955 | 0.0266
ACTN4_O43707_879_ELPPDQAEYCIAR (UniProt O43707) | -0.0365 | -0.144
ACTR8_Q9H981_179_WTNTSHHPEYLVGEEALYVNPLDCYNIHWPIR (UniProt Q9H981) | 0.349 | 0.0831
ACOT8_O14734_302_QDGVLAVTCAQEGVIR (UniProt O14734) | -0.0537 | 0.0698
ACSF2_Q96CM8_254_QHLDQLQYNQQFLSCHDPINIQFTSGTTGSPK (UniProt Q96CM8) | 0.0011 | -0.131
ACTL6A_O96019_206_SPLAGDFITMQCR (UniProt O96019) | 0.0233 | 0.201
ADGRL2_O95490_136_YLEVQYECVPYIFVCPGTLK (UniProt O95490) | 0.101 | 0.0273
ADAM10_O14672_222_NTCQLYIQTDHLFFK (UniProt O14672) | 0.1 | 0.164
ACTR8_Q9H981_179_WTNTSHHPEYLVGEEALYVNPLDCYNIHWPIRR (UniProt Q9H981) | 0.0339 | -0.000448
